Test results: patent US10639382B2, “Method for treating leukemia” (National Guard Health Affairs, priority 2017, dated 2020)
Counter-ions that a name gives are not always drawn.

Key:
Assay type in all cases: cell-based
Conditions in all cases: Homo sapiens, PBMC, compound 10 uM, average over patients, relative to high control (0%) and no-cell low control (100%)
PBMCs from CML patients = test: Primary screening of FDA approved drug library, TitreGlo/CellTiter-Glo cell viability, PBMCs from CML patients
PBMCs from CLL patients = test: Primary screening of FDA approved drug library, TitreGlo/CellTiter-Glo cell viability, PBMCs from CLL patients
PBMCs from AML patients = test: Primary screening of FDA approved drug library, TitreGlo/CellTiter-Glo cell viability, PBMCs from AML patients
PBMCs from ALL patients = test: Primary screening of FDA approved drug library, TitreGlo/CellTiter-Glo cell viability, PBMCs from ALL patients

Question: What does the source list for `CN1CCC[C@@H]1CCO[C@](C)(c1ccccc1)c1ccc(Cl)cc1` [Clemastine Fumarate]?
Answer: inhibition at 10 µM (PBMCs from CML patients): 66.4%; inhibition at 10 µM (PBMCs from CLL patients): 55.6%; inhibition at 10 µM (PBMCs from AML patients): 13.5%; inhibition at 10 µM (PBMCs from ALL patients): 39.1%

Question: Which inhibition at 10 µM (PBMCs from CML patients) does the source give for `Clc1ccc(CO/N=C(\Cn2ccnc2)c2ccc(Cl)cc2Cl)c(Cl)c1` [Oxiconazole Nitrate] here?
Answer: The inhibition at 10 µM was 61.7%.

Question: What about the inhibition at 10 µM (PBMCs from CLL patients) of the same molecule?
Answer: The inhibition at 10 µM was 12.2%.

Question: And the inhibition at 10 µM (PBMCs from AML patients)?
Answer: The inhibition at 10 µM was 8.7%.

Question: What about the inhibition at 10 µM (PBMCs from ALL patients) of the same molecule?
Answer: Its inhibition at 10 µM is 25.7%.
